Measurements published in the supplement of paper PMC10849652.
This is one part of the list.

Chains of the proteins cited; added tags and fusions are not shown. Lines headed by an entry give the natural chain unless they say otherwise; changes in a name come on top.
UniProt Q9H814, whole entry, looked up: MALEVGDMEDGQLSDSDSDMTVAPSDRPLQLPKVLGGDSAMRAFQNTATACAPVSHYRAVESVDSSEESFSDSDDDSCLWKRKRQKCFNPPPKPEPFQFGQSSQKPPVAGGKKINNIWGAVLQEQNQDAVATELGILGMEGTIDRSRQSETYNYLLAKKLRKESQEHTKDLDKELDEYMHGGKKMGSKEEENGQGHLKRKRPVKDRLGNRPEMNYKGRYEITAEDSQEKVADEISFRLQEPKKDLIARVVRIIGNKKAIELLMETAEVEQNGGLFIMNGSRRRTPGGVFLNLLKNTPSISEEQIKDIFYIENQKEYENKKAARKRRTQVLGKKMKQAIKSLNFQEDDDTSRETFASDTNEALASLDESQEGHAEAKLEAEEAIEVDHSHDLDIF
UniProt P42336, whole entry, looked up: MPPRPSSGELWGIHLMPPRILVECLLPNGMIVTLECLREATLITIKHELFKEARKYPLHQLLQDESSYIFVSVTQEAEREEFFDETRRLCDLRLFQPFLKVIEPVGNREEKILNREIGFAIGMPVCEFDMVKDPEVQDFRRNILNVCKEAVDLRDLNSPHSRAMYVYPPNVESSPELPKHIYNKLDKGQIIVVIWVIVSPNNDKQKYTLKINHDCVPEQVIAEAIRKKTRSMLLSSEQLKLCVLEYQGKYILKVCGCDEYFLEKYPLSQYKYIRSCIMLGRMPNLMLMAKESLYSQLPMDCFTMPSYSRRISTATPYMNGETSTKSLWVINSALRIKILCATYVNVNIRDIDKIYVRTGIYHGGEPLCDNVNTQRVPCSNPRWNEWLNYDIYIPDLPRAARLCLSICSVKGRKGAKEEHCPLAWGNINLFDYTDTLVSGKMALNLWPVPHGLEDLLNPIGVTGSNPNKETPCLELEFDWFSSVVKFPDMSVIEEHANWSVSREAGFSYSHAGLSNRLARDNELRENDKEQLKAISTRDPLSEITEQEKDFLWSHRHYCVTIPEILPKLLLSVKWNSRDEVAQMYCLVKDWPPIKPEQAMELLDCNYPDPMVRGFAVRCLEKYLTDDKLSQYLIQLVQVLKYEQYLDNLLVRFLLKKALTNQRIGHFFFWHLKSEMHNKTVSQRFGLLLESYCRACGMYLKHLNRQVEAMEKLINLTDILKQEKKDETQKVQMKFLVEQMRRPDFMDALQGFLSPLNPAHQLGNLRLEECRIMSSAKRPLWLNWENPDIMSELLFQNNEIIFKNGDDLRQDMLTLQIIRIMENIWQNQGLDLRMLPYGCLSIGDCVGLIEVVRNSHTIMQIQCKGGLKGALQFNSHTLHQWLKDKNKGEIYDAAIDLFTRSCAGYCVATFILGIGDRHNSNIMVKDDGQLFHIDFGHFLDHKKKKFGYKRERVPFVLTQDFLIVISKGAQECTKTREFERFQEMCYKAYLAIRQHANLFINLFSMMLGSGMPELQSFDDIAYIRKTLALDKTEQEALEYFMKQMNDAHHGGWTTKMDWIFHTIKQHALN
UniProt Q9Y446: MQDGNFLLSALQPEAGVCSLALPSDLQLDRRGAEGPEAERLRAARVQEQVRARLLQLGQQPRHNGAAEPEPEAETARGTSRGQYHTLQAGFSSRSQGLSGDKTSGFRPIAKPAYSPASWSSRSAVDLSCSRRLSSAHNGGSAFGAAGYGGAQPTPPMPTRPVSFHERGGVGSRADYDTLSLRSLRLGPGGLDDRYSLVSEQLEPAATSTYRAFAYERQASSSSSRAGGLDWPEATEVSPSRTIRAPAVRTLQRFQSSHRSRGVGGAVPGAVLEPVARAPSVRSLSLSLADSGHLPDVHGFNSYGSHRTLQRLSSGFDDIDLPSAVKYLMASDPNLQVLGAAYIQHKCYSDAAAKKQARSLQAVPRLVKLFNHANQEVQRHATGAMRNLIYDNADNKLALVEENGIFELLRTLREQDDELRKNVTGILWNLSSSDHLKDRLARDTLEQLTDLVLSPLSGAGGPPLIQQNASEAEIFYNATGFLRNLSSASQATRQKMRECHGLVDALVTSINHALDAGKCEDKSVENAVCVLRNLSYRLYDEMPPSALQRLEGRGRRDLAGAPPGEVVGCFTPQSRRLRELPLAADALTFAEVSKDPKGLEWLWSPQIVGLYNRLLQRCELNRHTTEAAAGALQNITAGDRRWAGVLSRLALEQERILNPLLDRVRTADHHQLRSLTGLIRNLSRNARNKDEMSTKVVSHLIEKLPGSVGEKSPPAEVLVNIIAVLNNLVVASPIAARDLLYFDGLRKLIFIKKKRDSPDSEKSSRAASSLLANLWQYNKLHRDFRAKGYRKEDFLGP
UniProt Q86UU1: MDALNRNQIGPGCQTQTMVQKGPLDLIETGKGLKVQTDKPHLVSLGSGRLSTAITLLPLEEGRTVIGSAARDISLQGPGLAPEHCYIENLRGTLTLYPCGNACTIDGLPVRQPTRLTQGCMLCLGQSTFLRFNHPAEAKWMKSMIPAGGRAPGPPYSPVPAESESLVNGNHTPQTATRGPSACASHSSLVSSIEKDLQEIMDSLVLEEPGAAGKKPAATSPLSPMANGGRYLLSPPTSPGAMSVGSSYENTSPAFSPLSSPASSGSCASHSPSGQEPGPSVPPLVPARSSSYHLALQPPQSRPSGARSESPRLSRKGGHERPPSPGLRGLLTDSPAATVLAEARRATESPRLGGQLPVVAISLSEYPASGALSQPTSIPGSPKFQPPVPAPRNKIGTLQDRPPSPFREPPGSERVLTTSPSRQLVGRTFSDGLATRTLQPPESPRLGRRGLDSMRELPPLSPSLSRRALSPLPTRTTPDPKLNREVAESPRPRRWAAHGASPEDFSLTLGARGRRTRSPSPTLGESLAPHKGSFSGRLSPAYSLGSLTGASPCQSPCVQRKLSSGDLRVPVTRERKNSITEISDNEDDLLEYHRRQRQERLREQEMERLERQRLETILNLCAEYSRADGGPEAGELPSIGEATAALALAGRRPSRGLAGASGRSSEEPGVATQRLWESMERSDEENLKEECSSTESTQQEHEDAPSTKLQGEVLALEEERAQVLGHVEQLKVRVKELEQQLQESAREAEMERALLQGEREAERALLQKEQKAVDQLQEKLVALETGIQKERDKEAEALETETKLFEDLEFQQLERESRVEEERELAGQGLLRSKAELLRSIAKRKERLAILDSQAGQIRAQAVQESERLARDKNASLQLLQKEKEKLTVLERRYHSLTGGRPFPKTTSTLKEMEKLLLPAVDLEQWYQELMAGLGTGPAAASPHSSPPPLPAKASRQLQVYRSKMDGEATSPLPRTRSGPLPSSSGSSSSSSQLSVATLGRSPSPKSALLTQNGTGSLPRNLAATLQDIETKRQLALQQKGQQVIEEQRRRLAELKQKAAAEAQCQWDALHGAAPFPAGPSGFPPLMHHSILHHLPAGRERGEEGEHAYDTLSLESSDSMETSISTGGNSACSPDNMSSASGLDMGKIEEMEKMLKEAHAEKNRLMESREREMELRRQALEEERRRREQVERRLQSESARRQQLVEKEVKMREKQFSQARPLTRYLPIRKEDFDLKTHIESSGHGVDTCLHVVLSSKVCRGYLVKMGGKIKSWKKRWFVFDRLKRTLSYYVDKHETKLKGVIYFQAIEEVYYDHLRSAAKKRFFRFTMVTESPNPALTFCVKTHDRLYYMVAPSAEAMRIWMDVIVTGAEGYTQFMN
UniProt Q8NCC3: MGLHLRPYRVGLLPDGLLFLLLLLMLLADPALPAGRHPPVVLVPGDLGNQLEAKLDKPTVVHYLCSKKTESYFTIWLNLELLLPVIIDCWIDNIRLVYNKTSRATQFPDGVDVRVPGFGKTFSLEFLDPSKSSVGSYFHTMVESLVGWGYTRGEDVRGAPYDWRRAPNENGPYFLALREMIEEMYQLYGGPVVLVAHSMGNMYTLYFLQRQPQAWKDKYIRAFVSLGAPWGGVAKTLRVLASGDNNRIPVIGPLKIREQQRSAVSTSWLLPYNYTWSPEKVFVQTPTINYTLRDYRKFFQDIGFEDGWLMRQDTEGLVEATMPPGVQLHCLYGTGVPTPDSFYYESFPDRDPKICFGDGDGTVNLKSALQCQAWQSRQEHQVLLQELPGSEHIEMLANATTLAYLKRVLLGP
UniProt Q00169: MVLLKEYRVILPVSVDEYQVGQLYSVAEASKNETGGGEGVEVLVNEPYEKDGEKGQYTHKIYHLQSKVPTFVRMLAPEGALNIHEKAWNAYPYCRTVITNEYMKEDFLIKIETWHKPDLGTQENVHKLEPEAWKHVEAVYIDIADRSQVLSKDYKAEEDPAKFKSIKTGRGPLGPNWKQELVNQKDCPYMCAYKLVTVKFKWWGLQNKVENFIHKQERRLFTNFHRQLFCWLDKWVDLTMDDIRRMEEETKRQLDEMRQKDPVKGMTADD
UniProt Q7RTV0, whole entry, looked up: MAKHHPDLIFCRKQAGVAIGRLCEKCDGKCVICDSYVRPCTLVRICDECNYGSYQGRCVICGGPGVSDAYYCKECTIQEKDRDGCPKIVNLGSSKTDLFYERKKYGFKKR
UniProt Q8TCD6: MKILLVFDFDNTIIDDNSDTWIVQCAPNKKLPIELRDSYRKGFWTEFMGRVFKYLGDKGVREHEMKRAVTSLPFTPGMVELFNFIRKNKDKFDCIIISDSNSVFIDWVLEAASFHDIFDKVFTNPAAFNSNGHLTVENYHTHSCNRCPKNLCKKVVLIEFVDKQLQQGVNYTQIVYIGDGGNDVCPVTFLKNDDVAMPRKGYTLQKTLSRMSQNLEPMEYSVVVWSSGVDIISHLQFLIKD
UniProt Q8NEB9, whole entry, looked up: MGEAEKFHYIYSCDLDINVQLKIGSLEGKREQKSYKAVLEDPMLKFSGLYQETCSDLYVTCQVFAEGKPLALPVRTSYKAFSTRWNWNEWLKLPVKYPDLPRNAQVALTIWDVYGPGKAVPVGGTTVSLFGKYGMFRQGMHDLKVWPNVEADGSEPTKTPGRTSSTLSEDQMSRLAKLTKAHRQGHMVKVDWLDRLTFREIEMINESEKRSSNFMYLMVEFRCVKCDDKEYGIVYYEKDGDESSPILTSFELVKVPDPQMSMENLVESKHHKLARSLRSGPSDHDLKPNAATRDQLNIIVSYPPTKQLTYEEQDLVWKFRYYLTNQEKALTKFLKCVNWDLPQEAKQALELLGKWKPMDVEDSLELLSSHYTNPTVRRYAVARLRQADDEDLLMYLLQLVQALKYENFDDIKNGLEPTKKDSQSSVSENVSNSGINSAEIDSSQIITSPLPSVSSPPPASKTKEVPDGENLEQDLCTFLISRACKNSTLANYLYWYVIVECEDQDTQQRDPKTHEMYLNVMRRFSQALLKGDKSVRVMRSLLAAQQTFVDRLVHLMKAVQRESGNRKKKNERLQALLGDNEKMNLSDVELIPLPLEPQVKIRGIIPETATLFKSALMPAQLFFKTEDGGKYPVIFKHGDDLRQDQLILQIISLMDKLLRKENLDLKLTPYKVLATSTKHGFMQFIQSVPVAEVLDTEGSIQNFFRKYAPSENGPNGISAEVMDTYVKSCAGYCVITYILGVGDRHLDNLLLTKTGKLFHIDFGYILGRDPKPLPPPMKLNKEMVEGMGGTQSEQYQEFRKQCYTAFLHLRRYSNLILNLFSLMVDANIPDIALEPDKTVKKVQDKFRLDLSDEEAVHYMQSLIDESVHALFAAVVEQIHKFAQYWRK
UniProt Q9NWS0, whole entry, looked up: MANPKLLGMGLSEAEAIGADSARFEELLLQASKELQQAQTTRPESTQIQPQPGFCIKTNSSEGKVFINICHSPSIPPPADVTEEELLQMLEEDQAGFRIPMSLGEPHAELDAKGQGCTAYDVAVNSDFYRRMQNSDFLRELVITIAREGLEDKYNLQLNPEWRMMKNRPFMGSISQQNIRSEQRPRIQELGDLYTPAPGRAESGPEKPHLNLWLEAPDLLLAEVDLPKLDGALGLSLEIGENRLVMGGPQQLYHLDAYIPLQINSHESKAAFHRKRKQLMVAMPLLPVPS
UniProt Q9BUL5: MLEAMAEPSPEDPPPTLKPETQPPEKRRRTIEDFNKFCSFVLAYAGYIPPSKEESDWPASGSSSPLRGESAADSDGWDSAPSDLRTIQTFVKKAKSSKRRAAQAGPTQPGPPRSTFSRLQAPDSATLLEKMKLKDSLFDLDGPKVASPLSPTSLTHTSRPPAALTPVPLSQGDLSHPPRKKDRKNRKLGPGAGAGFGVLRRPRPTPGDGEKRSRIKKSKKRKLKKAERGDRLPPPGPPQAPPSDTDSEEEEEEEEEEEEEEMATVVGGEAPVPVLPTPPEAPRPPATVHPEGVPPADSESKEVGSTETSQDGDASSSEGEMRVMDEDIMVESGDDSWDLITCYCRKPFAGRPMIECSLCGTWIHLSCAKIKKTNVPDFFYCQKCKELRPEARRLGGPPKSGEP

What was measured:
Assay in all cases: log2 fold change, soluble protein after heating vs DMSO (PISA); higher = thermal stabilisation; K562 lysate, 10 uM; active = over 0.2 and 3.5 SD of the protein, either way, in both replicates (recomputed)
vemurafenib = compound: CCCS(=O)(=O)Nc1ccc(F)c(C(=O)c2c[nH]c3ncc(-c4ccc(Cl)cc4)cc23)c1F [vemurafenib]
Procedure, shortened: (§1)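 Quantification was by TMTpro 16plex LC-MS/MS with equalised channel sums, applied to the supernatant after 21,000xg for 90 min. Samples were crude K562 extract at 1 mg/mL protein in PBS pH 7.4 with 1 mM MgCl2, treated with 10 μM compound for 30 min, heated for 3 min across 48°C-58°C, pooled and brought to 0.5% NP-40 at 4°C. Values are log-two fold changes in thermal stability relative to solvent controls, from duplicates.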

[1] = compound: CCCS(=O)(=O)Nc1ccc(F)c(C(=O)c2c[nH]c3ncc(Cl)cc23)c1F
Procedure, shortened: as §1

barasertib = compound: CCN(CCCOc1ccc2c(Nc3cc(CC(=O)Nc4cccc(F)c4)[nH]n3)ncnc2c1)CCOP(=O)(O)O [barasertib]
Procedure, shortened: as §1

[2] = compound: CC[C@@H]1C(=O)N(C)c2cnc(Nc3ccc(C(=O)NC4CCN(C)CC4)cc3OC)nc2N1C1CCCC1
Procedure, shortened: as §1

volasertib = compound: CC[C@@H]1C(=O)N(C)c2cnc(Nc3ccc(C(=O)N[C@H]4CC[C@H](N5CCN(CC6CC6)CC5)CC4)cc3OC)nc2N1C(C)C [volasertib]
Procedure, shortened: as §1

[3] = compound: CCn1c(C(=O)N(C2CC2)C2CC2)cc2c3c(ncn3C)c(Nc3cc(C)n(C)n3)nc21
Procedure, shortened: as §1

[4] = compound: CCn1cc(-c2ccnc3[nH]c(-c4cccc(CN(C)C)c4)cc23)c(-c2ccc(NC(=O)N(C)C)cc2)n1
Procedure, shortened: as §1

[5] = compound: CN1CCC(CNc2ccc3ncc(-c4cccc(OC(F)(F)F)c4)n3n2)CC1
Procedure, shortened: as §1

saracatinib = compound: CN1CCN(CCOc2cc(OC3CCOCC3)c3c(Nc4c(Cl)ccc5c4OCO5)ncnc3c2)CC1 [saracatinib]
Procedure, shortened: as §1

sotrastaurin = compound: CN1CCN(c2nc(C3=C(c4c[nH]c5ccccc45)C(=O)NC3=O)c3ccccc3n2)CC1 [sotrastaurin]
Procedure, shortened: as §1

alvocidib = compound: CN1CC[C@H](c2c(O)cc(O)c3c(=O)cc(-c4ccccc4Cl)oc23)[C@H](O)C1 [alvocidib]
Procedure, shortened: as §1

Tubastatin A = compound: CN1CCc2c(c3ccccc3n2Cc2ccc(C(=O)NO)cc2)C1 [Tubastatin A]
Procedure, shortened: as §1

[6] = compound: CNC(=O)C1=CC=CC=C1NC2=NC(=NC=C2Cl)NC3=C(C=C(C=C3)N4CCOCC4)OC
Procedure, shortened: as §1

defactinib = compound: CNC(=O)c1ccc(Nc2ncc(C(F)(F)F)c(NCc3nccnc3N(C)S(C)(=O)=O)n2)cc1 [defactinib]
Procedure, shortened: as §1

[7] = compound: CNc1nc(-c2ccc3c(N)n[nH]c3c2)cc(N2C[C@@H](C(=O)NC3CCCCC3)CC[C@H]2C)n1
Procedure, shortened: as §1

encorafenib = compound: COC(=O)N[C@@H](C)CNc1nccc(-c2cn(C(C)C)nc2-c2cc(Cl)cc(NS(C)(=O)=O)c2F)n1 [encorafenib]
Procedure, shortened: as §1

[8] = compound: COC(=O)[C@H](CCSC)NC(=O)C1=C(C=C(C=C1)NC[C@H](CS)N)C2=CC=CC=C2
Procedure, shortened: as §1

alisertib = compound: COc1cc(Nc2ncc3c(n2)-c2ccc(Cl)cc2C(c2c(F)cccc2OC)=NC3)ccc1C(=O)O [alisertib]
Procedure, shortened: as §1

[9] = compound: COc1cc2nc(-c3cc(F)ccc3O)nc(N[C@@H]3CNC[C@H]3C(C)(C)O)c2cc1OC
Procedure, shortened: as §1

gefitinib = compound: COc1cc2ncnc(Nc3ccc(F)c(Cl)c3)c2cc1OCCCN1CCOCC1 [gefitinib]
Procedure, shortened: as §1

Measured: log2 fold change

PLA2G4B isoform 6 (UniProt P0C869)
inactive: vemurafenib 0.05 | [1] 0.069 | barasertib 0.002 | [2] 0.144 | volasertib 0.018 | [3] -0.191 | [4] 0.034 | [5] -0.014 | saracatinib 0.101 | sotrastaurin -0.168 | alvocidib -0.035 | Tubastatin A 0.054 | [6] -0.032 | defactinib 0.024 | [7] 0.051 | encorafenib 0.09 | [8] 0.177 | alisertib -0.009 | [9] 0.073 | gefitinib 0.115

PHAX (UniProt Q9H814)
inactive: vemurafenib 0.033 | [1] 0.027 | barasertib -0.038 | [2] 0.087 | volasertib 0.006 | [3] -0.023 | [4] -0.039 | [5] 0.042 | saracatinib 0.025 | sotrastaurin 0.014 | alvocidib -0.007 | Tubastatin A 0.03 | [6] 0.019 | defactinib 0.015 | [7] 0.056 | encorafenib 0.007 | [8] -0.04 | alisertib 0.035 | [9] -0.018 | gefitinib 0.055

PIK3CA (UniProt P42336)
inactive: vemurafenib -0.021 | [1] -0.01 | barasertib 0.008 | [2] 0.044 | volasertib -0.004 | [3] -0.032 | [4] 0.027 | [5] 0.008 | saracatinib -0.074 | sotrastaurin -0.014 | alvocidib -0.034 | Tubastatin A 0.116 | [6] 0.047 | defactinib 0.027 | [7] -0.171 | encorafenib -0.009 | [8] -0.056 | alisertib -0.018 | [9] 0.009

PI4KB (UniProt Q9UBF8)
active: vemurafenib 0.222
inactive: [1] 0.011 | barasertib -0.051 | [2] 0.049 | volasertib -0.026 | [3] -0.016 | [4] -0.038 | [5] 0.134 | saracatinib -0.006 | sotrastaurin 0.012 | alvocidib 0.005 | Tubastatin A -0.032 | [6] 0.228 | defactinib 0.094 | [7] 0.056 | encorafenib 0.081 | [8] -0.069 | alisertib -0.001 | [9] -0.097 | gefitinib 0

3 successive records already listed:
PLA2G4B isoform 6 (UniProt P0C869)
inactive: vemurafenib 0.05 | [1] 0.069 | barasertib 0.002 | [2] 0.144 | volasertib 0.018 | [3] -0.191 | [4] 0.034 | [5] -0.014 | saracatinib 0.101 | sotrastaurin -0.168 | alvocidib -0.035 | Tubastatin A 0.054 | [6] -0.032 | defactinib 0.024 | [7] 0.051 | encorafenib 0.09 | [8] 0.177 | alisertib -0.009 | [9] 0.073 | gefitinib 0.115

PHAX (UniProt Q9H814)
inactive: vemurafenib 0.033 | [1] 0.027 | barasertib -0.038 | [2] 0.087 | volasertib 0.006 | [3] -0.023 | [4] -0.039 | [5] 0.042 | saracatinib 0.025 | sotrastaurin 0.014 | alvocidib -0.007 | Tubastatin A 0.03 | [6] 0.019 | defactinib 0.015 | [7] 0.056 | encorafenib 0.007 | [8] -0.04 | alisertib 0.035 | [9] -0.018 | gefitinib 0.055

PIK3CA (UniProt P42336)
inactive: vemurafenib -0.021 | [1] -0.01 | barasertib 0.008 | [2] 0.044 | volasertib -0.004 | [3] -0.032 | [4] 0.027 | [5] 0.008 | saracatinib -0.074 | sotrastaurin -0.014 | alvocidib -0.034 | Tubastatin A 0.116 | [6] 0.047 | defactinib 0.027 | [7] -0.171 | encorafenib -0.009 | [8] -0.056 | alisertib -0.018 | [9] 0.009

Additional records

PKP3 isoform 2 (UniProt Q9Y446)
inactive: vemurafenib -0.087 | [1] 0.05 | barasertib -0.01 | [2] 0.061 | volasertib -0.005 | [3] 0.05 | [4] 0.027 | [5] -0.088 | saracatinib -0.037 | sotrastaurin 0.001 | alvocidib -0.011 | Tubastatin A -0.126 | [6] 0.067 | defactinib 0.035 | [7] 0.017 | encorafenib 0.098 | [8] 0.095 | alisertib 0.019 | [9] 0.031 | gefitinib -0.018

PHLDB1 (UniProt Q86UU1)
inactive: vemurafenib -0.071 | [1] 0.162 | barasertib 0.01 | [2] 0.033 | volasertib -0.044 | [3] 0.001 | [4] 0.095 | [5] -0.014 | saracatinib 0.005 | sotrastaurin -0.049 | alvocidib -0.067 | Tubastatin A -0.1 | [6] -0.031 | defactinib 0.023 | [7] 0.049 | encorafenib -0.041 | [8] -0.05 | alisertib 0.009 | [9] -0.037 | gefitinib 0.017

PLA2G15 (UniProt Q8NCC3)
inactive: vemurafenib -0.047 | [1] -0.023 | barasertib -0.011 | [2] 0.018 | volasertib -0.005 | [3] 0.041 | [4] -0.009 | [5] 0.011 | saracatinib 0.001 | sotrastaurin 0.021 | alvocidib 0.002 | Tubastatin A 0.025 | [6] 0 | defactinib 0.037 | [7] -0.029 | encorafenib 0.071 | [8] -0.026 | alisertib -0.007 | [9] 0.014 | gefitinib -0.003

PHKB isoform 3 (UniProt Q93100)
inactive: vemurafenib -0.043 | [1] -0.007 | barasertib 0.04 | [2] 0.022 | volasertib -0.034 | [3] 0.009 | [4] -0.146 | [5] 0.138 | saracatinib 0.019 | sotrastaurin -0.014 | alvocidib 0.04 | Tubastatin A -0.099 | [6] 0.223 | defactinib -0.006 | [7] -0.018 | encorafenib -0.019 | [8] 0.015 | alisertib 0.006 | [9] 0.107 | gefitinib 0.03

PICALM (UniProt Q13492)
inactive: vemurafenib -0.004 | [1] -0.004 | barasertib 0.037 | [2] 0.04 | volasertib 0.014 | [3] 0.004 | [4] 0.098 | [5] -0.021 | saracatinib 0.009 | sotrastaurin -0.061 | alvocidib -0.021 | Tubastatin A 0.029 | [6] -0.032 | defactinib -0.037 | [7] -0.033 | encorafenib 0.042 | [8] 0.014 | alisertib 0.008 | [9] 0.017 | gefitinib 0.008

PITPNA (UniProt Q00169)
inactive: vemurafenib -0.034 | [1] -0.002 | barasertib -0.005 | [2] -0.038 | volasertib 0.024 | [3] 0.005 | [4] 0.141 | [5] -0.114 | saracatinib 0.005 | sotrastaurin 0.011 | alvocidib 0.034 | Tubastatin A 0.015 | [6] -0.016 | defactinib -0.003 | [7] -0.016 | encorafenib -0.004 | [8] -0.04 | alisertib 0.004 | [9] 0.019 | gefitinib 0.005

PHF5A (UniProt Q7RTV0)
inactive: vemurafenib 0.003 | [1] 0.007 | barasertib -0.04 | [2] 0 | volasertib 0.035 | [3] 0.013 | [4] 0.022 | [5] 0.078 | saracatinib 0.021 | sotrastaurin -0.055 | alvocidib -0.024 | Tubastatin A 0.03 | [6] -0.006 | defactinib 0.026 | [7] 0.04 | encorafenib 0.004 | [8] -0.126 | alisertib 0.016 | [9] 0.023 | gefitinib -0.052

PHOSPHO2 (UniProt Q8TCD6)
active: [8] 0.356
inactive: vemurafenib -0.023 | [1] -0.026 | barasertib 0.047 | [2] 0.232 | volasertib 0.019 | [3] 0.003 | [4] -0.084 | [5] 0.001 | saracatinib -0.023 | sotrastaurin 0.039 | alvocidib 0.053 | Tubastatin A -0.042 | [6] -0.026 | defactinib -0.008 | [7] -0.008 | encorafenib -0.02 | alisertib -0.013 | [9] -0.008 | gefitinib 0.016

PIK3C3 (UniProt Q8NEB9)
inactive: vemurafenib 0.032 | [1] 0.019 | barasertib -0.012 | [2] 0.098 | volasertib -0.025 | [3] -0.075 | [4] -0.226 | [5] 0.121 | saracatinib 0.008 | sotrastaurin 0.007 | alvocidib -0.081 | Tubastatin A 0.02 | [6] -0.019 | defactinib -0.004 | [7] -0.046 | encorafenib -0.016 | [8] 0.015 | alisertib 0.012 | [9] 0.048 | gefitinib -0.037

PIH1D1 (UniProt Q9NWS0)
inactive: vemurafenib -0.008 | [1] 0.014 | barasertib 0.067 | [2] -0.01 | volasertib -0.004 | [3] 0.006 | [4] 0.022 | [5] -0.021 | saracatinib -0.032 | sotrastaurin -0.009 | alvocidib -0.013 | Tubastatin A -0.012 | [6] 0.025 | defactinib 0.028 | [7] -0.021 | encorafenib 0.05 | [8] -0.065 | alisertib -0.009 | [9] -0.011 | gefitinib -0.016

PHF23 (UniProt Q9BUL5)
inactive: vemurafenib -0.03 | [1] -0.008 | barasertib -0.009 | [2] 0.025 | volasertib 0.022 | [3] -0.037 | [4] 0.073 | [5] -0.028 | saracatinib -0.009 | sotrastaurin -0.034 | alvocidib -0.018 | Tubastatin A -0.04 | [6] 0.036 | defactinib 0.022 | [7] -0.005 | encorafenib -0.006 | [8] -0.099 | alisertib 0.002 | [9] -0.005 | gefitinib 0.017

PIK3CB (UniProt P42338)
inactive: vemurafenib -0.079 | [1] 0.001 | barasertib 0.011 | [2] 0.314 | volasertib -0.025 | [3] -0.07 | [4] -0.02 | [5] 0.427 | saracatinib -0.03 | sotrastaurin 0.158 | alvocidib -0.002 | Tubastatin A -0.123 | [6] 0.056 | defactinib -0.044 | [7] -0.013 | encorafenib -0.02 | [8] -0.126 | alisertib -0.01 | [9] -0.011 | gefitinib -0.019
